Laboratory results reported in doi:10.1101/2021.09.06.459192.
No constants are given. Whether binding was seen depends on the method and setting. In cells and extracts the contact can be indirect. Some results given as binding are weak or reduced against the parent protein; the word gives no strength.

Amino acid sequences for entries named in this document (tags omitted).
UniProt P42945: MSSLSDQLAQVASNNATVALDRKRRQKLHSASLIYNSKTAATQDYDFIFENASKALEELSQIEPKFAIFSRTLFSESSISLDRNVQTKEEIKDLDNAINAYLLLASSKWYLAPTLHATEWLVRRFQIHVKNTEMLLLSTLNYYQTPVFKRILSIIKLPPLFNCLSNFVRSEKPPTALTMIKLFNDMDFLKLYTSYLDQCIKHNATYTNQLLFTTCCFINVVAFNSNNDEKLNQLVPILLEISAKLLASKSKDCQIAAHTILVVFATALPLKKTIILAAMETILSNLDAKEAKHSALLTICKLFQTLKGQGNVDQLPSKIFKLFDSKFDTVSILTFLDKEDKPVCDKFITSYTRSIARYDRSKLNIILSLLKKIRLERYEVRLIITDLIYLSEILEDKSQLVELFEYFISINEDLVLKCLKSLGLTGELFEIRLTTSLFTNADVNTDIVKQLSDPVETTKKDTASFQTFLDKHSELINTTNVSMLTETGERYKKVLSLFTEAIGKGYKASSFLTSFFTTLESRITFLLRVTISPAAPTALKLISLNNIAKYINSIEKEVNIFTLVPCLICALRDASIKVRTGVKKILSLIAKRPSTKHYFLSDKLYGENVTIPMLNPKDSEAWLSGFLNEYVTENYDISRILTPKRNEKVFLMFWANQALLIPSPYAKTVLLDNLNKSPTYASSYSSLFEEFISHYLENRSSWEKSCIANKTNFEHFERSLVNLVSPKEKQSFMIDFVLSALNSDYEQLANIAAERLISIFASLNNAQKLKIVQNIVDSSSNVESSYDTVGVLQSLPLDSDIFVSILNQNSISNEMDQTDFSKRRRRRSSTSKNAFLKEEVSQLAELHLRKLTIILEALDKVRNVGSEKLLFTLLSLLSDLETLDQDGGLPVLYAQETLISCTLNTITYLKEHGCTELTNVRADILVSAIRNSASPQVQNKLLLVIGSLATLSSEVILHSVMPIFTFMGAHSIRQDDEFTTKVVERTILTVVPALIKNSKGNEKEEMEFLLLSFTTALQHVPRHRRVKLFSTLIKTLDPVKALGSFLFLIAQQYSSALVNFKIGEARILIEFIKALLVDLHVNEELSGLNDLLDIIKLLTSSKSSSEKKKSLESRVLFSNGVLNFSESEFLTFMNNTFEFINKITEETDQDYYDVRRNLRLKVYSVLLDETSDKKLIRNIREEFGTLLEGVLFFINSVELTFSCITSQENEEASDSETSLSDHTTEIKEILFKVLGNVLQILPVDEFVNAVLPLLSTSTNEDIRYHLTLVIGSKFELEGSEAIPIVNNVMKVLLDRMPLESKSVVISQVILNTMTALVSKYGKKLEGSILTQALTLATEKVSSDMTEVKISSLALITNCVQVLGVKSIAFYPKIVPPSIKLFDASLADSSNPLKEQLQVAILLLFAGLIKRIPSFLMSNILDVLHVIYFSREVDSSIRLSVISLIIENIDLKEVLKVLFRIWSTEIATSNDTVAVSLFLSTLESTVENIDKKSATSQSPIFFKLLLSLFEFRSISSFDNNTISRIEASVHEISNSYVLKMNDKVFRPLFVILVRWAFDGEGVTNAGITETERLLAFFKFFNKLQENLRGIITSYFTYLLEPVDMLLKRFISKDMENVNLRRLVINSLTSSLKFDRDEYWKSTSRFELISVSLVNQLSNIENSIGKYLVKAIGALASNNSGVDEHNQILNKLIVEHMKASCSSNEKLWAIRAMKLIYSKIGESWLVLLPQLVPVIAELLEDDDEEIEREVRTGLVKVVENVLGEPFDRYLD
UniProt Q05022: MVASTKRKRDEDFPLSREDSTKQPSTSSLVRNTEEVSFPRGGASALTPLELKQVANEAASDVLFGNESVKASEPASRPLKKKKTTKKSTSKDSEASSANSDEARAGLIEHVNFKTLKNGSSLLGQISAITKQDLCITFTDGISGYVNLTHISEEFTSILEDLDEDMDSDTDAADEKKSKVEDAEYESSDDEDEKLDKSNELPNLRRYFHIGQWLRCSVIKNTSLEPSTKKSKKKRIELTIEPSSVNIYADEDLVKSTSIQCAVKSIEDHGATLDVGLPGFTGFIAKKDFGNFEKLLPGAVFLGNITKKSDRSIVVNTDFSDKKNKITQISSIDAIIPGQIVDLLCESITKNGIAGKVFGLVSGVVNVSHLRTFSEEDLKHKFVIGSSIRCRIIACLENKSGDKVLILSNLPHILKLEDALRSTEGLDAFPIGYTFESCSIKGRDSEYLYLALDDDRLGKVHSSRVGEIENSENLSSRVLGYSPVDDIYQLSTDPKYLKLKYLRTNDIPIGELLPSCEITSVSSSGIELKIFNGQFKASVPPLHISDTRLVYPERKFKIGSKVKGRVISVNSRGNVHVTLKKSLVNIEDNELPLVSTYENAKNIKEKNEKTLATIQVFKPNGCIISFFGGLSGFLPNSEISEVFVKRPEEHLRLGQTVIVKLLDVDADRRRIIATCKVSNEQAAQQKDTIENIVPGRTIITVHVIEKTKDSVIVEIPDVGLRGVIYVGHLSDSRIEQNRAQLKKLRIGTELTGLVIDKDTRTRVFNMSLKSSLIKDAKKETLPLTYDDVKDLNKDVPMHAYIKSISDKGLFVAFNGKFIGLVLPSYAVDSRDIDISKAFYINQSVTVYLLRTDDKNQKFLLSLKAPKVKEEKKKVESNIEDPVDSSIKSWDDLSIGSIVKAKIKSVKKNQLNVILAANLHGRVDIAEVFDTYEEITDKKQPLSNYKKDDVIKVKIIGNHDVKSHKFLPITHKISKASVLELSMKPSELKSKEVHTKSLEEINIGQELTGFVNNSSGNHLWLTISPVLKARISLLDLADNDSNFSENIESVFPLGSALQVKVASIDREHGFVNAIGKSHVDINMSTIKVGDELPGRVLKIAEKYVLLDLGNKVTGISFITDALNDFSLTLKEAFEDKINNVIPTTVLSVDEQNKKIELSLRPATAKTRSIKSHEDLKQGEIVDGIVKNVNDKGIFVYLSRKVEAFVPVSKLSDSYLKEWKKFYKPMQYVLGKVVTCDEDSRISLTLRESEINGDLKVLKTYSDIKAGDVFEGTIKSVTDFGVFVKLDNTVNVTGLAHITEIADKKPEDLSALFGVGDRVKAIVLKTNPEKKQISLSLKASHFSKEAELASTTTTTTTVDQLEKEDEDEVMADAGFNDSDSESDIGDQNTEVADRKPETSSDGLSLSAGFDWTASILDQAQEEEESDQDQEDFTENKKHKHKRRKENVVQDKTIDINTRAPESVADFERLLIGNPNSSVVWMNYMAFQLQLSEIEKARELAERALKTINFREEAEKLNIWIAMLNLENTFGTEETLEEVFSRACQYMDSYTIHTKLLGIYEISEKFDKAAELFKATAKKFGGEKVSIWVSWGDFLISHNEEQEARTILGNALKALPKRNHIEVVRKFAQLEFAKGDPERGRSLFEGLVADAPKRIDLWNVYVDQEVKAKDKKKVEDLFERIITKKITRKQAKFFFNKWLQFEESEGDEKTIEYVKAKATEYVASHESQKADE

Target: Utp10-TAP (S. cerevisiae) (UniProt P42945)
Test: co-IP

- binding: binds
Substance: Rrp5 (in yeast cells) (from UniProt Q05022 1-1729)
